{"source": "the supplement of paper PMC9135407", "test_system": "primary human hepatic stellate cells (donor 1)", "test": "percent Bodipy-positive cells; higher = more lipid droplet accumulation", "settings": "48 h", "key": {"[1]": {"settings": "library stock concentration: 10 mM"}, "[2]": {"settings": "library stock concentration: 400 uM"}, "[3]": {"settings": "library stock concentration: 2 mM"}, "[4]": {"settings": "library stock concentration: 3.33 mM"}, "[5]": {"settings": "library stock concentration: 1 mM"}, "[6]": {"settings": "library stock concentration: 80 uM"}, "[7]": {"settings": "library stock concentration: 4.7 mM"}}, "note": "Values joined by “and” are separate entries in the source; they are usually repeats but may differ in a detail not shown here. Equal entries are not always repeated. Structures can show the parent of a compound that is named as a salt. ± gives the standard deviation of the averaged measurements. The list shows a part of the results. Baselines shift from plate to plate; read single values as rough.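 Assay uses culture-activated primary human stellate myofibroblasts; lipid droplet recovery indicates inactivation. Measured: proportion of Hoechst-counted cells over a plate-specific Bodipy cutoff, duplicate wells, DMSO and nortriptyline as per-plate negative and positive controls. A hit scores, control-normalized, above the plate's top-tenth-percentile nortriptyline wells or ranks among its three best wells. Final well concentrations not reported.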"}
{"smiles": "CC(C)NCC(O)c1ccc2ccccc2c1", "note": "(centres undefined) [Pronetalol hydrochloride]", "values": [{"measurement": "percent Bodipy-positive cells", "setting": "[1]", "value": "51.9 ± 11", "unit": "%"}]}
{"smiles": "CC(C)NCC(O)c1ccc2ccccc2c1", "note": "(centres undefined) [Pronethalol hydrochloride]", "values": [{"measurement": "percent Bodipy-positive cells", "value": "39.6 ± 5.7", "unit": "%"}, {"measurement": "percent Bodipy-positive cells", "setting": "[1]", "value": "27.5 ± 7.2", "unit": "%"}]}
{"smiles": "CC(C)NCC(O)c1ccc2ccccc2c1", "note": "(centres undefined) [Pronethalol HCl]", "values": [{"measurement": "percent Bodipy-positive cells", "setting": "library stock concentration: 8.7 mM", "value": "32.1 ± 7.8", "unit": "%"}]}
{"smiles": "CS(=O)(=O)CCNCc1ccc(-c2ccc3ncnc(Nc4ccc(OCc5cccc(F)c5)c(Cl)c4)c3c2)o1.Cc1ccc(S(=O)(=O)O)cc1.Cc1ccc(S(=O)(=O)O)cc1", "values": [{"measurement": "percent Bodipy-positive cells", "setting": "[1]", "value": "98.641 ± 0.0064", "unit": "%"}]}
{"smiles": "CC(C)(C)c1nc2c3cc[nH]c(=O)c3c3cc(F)ccc3c2[nH]1", "note": "[Merck -5 (0.4 mM)]", "values": [{"measurement": "percent Bodipy-positive cells", "setting": "[2]", "value": "18.2 ± 6.8", "unit": "%"}]}
{"smiles": "CC(C)(C)c1nc2c3cc[nH]c(=O)c3c3cc(F)ccc3c2[nH]1", "note": "[Merck -5 (2 mM)]", "values": [{"measurement": "percent Bodipy-positive cells", "setting": "[3]", "value": "16.5 ± 6.6", "unit": "%"}]}
{"smiles": "CC(C)(C)c1nc2c3cc[nH]c(=O)c3c3cc(F)ccc3c2[nH]1", "note": "[Merck -5 (10 mM)]", "values": [{"measurement": "percent Bodipy-positive cells", "setting": "[1]", "value": "38.2 ± 13", "unit": "%"}]}
{"smiles": "CC(C)(C)c1nc2c3cc[nH]c(=O)c3c3cc(F)ccc3c2[nH]1", "note": "[JAK Inhibitor I]", "values": [{"measurement": "percent Bodipy-positive cells", "setting": "[4]", "value": "10.6 ± 3", "unit": "%"}]}
{"smiles": "CC(=O)O[C@]1(C(C)=O)CC[C@H]2[C@@H]3C[C@H](C)C4=CC(=O)CC[C@]4(C)[C@H]3CC[C@@]21C", "note": "[Medroxyprogesterone acetate]", "values": [{"measurement": "percent Bodipy-positive cells", "setting": "[4]", "value": "8.54 ± 3.2", "unit": "%"}, {"measurement": "percent Bodipy-positive cells", "setting": "library stock concentration: 5.2 mM", "value": "3.71 ± 3.4", "unit": "%"}, {"measurement": "percent Bodipy-positive cells", "setting": "[1]", "value": "13.9% and 15.9%"}]}
{"smiles": "CC(=O)O[C@]1(C(C)=O)CC[C@H]2[C@@H]3C[C@H](C)C4=CC(=O)CC[C@]4(C)[C@H]3CC[C@@]21C", "note": "[Medroxyprogesterone 17-acetate]", "values": [{"measurement": "percent Bodipy-positive cells", "setting": "[1]", "value": "21.7 ± 7.9", "unit": "%"}, {"measurement": "percent Bodipy-positive cells", "setting": "library stock concentration: 16.4 mM", "value": "10.7 ± 3.6", "unit": "%"}]}
{"smiles": "O=C(O)c1cc(-c2ccccc2)nc2ccccc12", "values": [{"measurement": "percent Bodipy-positive cells", "setting": "[1]", "value": "36.4 ± 21", "unit": "%"}]}
{"smiles": "O=C(O)c1cc(-c2ccccc2)nc2ccccc12", "note": "[Cinchophen]", "values": [{"measurement": "percent Bodipy-positive cells", "setting": "[4]", "value": "10.6 ± 2.7", "unit": "%"}, {"measurement": "percent Bodipy-positive cells", "setting": "[1]", "value": "19 ± 3.2", "unit": "%"}]}
{"smiles": "CCCc1c(OCC(O)COc2ccc3c(=O)cc(C(=O)O)oc3c2CCC)ccc(C(C)=O)c1O", "note": "(centres undefined)", "values": [{"measurement": "percent Bodipy-positive cells", "setting": "[1]", "value": "5.15 ± 1.5", "unit": "%"}]}
{"smiles": "O.O.O.O.O.O.O.O.O.O.O.O.O.O.O.O.O=S(=O)([O][Al])OC[C@H]1O[C@@](COS(=O)(=O)[O][Al])(O[C@H]2O[C@H](COS(=O)(=O)[O][Al])[C@@H](OS(=O)(=O)[O][Al])[C@H](OS(=O)(=O)[O][Al])[C@H]2OS(=O)(=O)[O][Al])[C@@H](OS(=O)(=O)[O][Al])[C@@H]1OS(=O)(=O)[O][Al]", "note": "[Sucralfate sodium (10% w/v in dmso)]", "values": [{"measurement": "percent Bodipy-positive cells", "setting": "library stock concentration: 900 uM", "value": "20 ± 11", "unit": "%"}]}
{"smiles": "CCCCCCCCCCCCCCCCOC[C@H](COP(=O)([O-])OCC[N+](C)(C)C)OC(=O)CCCCCCCC(=O)O", "note": "[Azelaoyl PAF]", "values": [{"measurement": "percent Bodipy-positive cells", "setting": "[5]", "value": "7.54 ± 1.6", "unit": "%"}]}
{"smiles": "CNc1cc(OC)c(C(=O)NC2CCN(Cc3ccccc3)C2C)cc1Cl", "note": "(centres undefined) [Nemonapride]", "values": [{"measurement": "percent Bodipy-positive cells", "setting": "[1]", "value": "47.5 ± 7.2", "unit": "%"}]}
{"smiles": "COc1cc2c(Oc3ccc4[nH]c(C)cc4c3F)ncnc2cc1OCCCN1CCCC1", "note": "[Cediranib (AZD2171)]", "values": [{"measurement": "percent Bodipy-positive cells", "setting": "[1]", "value": 100, "unit": "%"}]}
{"smiles": "COc1cc2c(Oc3ccc4[nH]c(C)cc4c3F)ncnc2cc1OCCCN1CCCC1", "note": "[Cediranib]", "values": [{"measurement": "percent Bodipy-positive cells", "setting": "[6]", "value": "16.6 ± 0.96", "unit": "%"}, {"measurement": "percent Bodipy-positive cells", "setting": "[2]", "value": "50.2 ± 9", "unit": "%"}, {"measurement": "percent Bodipy-positive cells", "setting": "[1]", "value": "98.51 ± 0.68", "unit": "%"}]}
{"smiles": "CC(=O)N[C@@H](Cc1c[nH]c2ccccc12)C(N)=O", "note": "[Acetyltryptophanamide]", "values": [{"measurement": "percent Bodipy-positive cells", "setting": "[1]", "value": "15.8 ± 6.1", "unit": "%"}]}
{"smiles": "COc1cc(N2CCC(C(N)=O)CC2)ccc1Nc1nc(N)c(Cl)c(Nc2ccccc2S(=O)(=O)C(C)C)n1", "values": [{"measurement": "percent Bodipy-positive cells", "setting": "[6]", "value": "7.16 ± 3.6", "unit": "%"}, {"measurement": "percent Bodipy-positive cells", "setting": "[2]", "value": "8.55 ± 6.6", "unit": "%"}, {"measurement": "percent Bodipy-positive cells", "setting": "[3]", "value": "19.8 ± 7.7", "unit": "%"}, {"measurement": "percent Bodipy-positive cells", "setting": "[1]", "value": "69.8 ± 18", "unit": "%"}]}
{"smiles": "CN(C)c1nc(N(C)C)nc(N(C)C)n1", "note": "[Altretamine]", "values": [{"measurement": "percent Bodipy-positive cells", "value": "7.51 ± 1.7", "unit": "%"}, {"measurement": "percent Bodipy-positive cells", "setting": "[4]", "value": "11.5 ± 8", "unit": "%"}, {"measurement": "percent Bodipy-positive cells", "setting": "library stock concentration: 9.5 mM", "value": "6.03% and 23.5%"}]}
{"smiles": "COc1cc2c(cc1-c1c(C)noc1C)ncc1[nH]c(=O)n([C@H](C)c3ccccn3)c12", "values": [{"measurement": "percent Bodipy-positive cells", "setting": "[6]", "value": "36.8 ± 2.1", "unit": "%"}, {"measurement": "percent Bodipy-positive cells", "setting": "[2]", "value": "32.2 ± 3.9", "unit": "%"}, {"measurement": "percent Bodipy-positive cells", "setting": "[3]", "value": "40.84 ± 0.1", "unit": "%"}, {"measurement": "percent Bodipy-positive cells", "setting": "[4]", "value": "11.5 ± 3.4", "unit": "%"}]}
{"smiles": "CC(NC(=O)C(O)c1cc(F)cc(F)c1)C(=O)NC1C(=O)N(C)c2ccccc2-c2ccccc21", "note": "(centres undefined)", "values": [{"measurement": "percent Bodipy-positive cells", "setting": "[4]", "value": "5.78 ± 1.5", "unit": "%"}, {"measurement": "percent Bodipy-positive cells", "setting": "[1]", "value": "4.6 ± 0.14", "unit": "%"}]}
{"smiles": "COc1nccc(-c2c(-c3ccc(F)cc3)ncn2C2CCNCC2)n1", "values": [{"measurement": "percent Bodipy-positive cells", "setting": "[2]", "value": "27.5 ± 18", "unit": "%"}, {"measurement": "percent Bodipy-positive cells", "setting": "[3]", "value": "35.2 ± 6.8", "unit": "%"}, {"measurement": "percent Bodipy-positive cells", "setting": "[1]", "value": "38.8 ± 9.2", "unit": "%"}]}
{"smiles": "CC(=O)Oc1ccc2c(c1)CCC1C2CC[C@]2(C)C(=O)CCC12", "note": "(some centres undefined) [Estrone acetate]", "values": [{"measurement": "percent Bodipy-positive cells", "setting": "[1]", "value": "31.3 ± 7.2", "unit": "%"}]}
{"smiles": "Nc1nc2c(nc(Br)n2C2OC3COP(=O)(O)O[C@@H]3C2O)c(=O)[nH]1", "note": "(some centres undefined) [8-Bromo-cGMP sodium]", "values": [{"measurement": "percent Bodipy-positive cells", "setting": "[1]", "value": "37.3 ± 10", "unit": "%"}]}
{"smiles": "Nc1nc2n[nH]nc2c(=O)[nH]1", "note": "[Azaguanine-8]", "values": [{"measurement": "percent Bodipy-positive cells", "value": "48.2 ± 2", "unit": "%"}, {"measurement": "percent Bodipy-positive cells", "setting": "[4]", "value": "23.2 ± 6.7", "unit": "%"}, {"measurement": "percent Bodipy-positive cells", "setting": "[1]", "value": "77.6 ± 4.5", "unit": "%"}]}
{"smiles": "CCCCCCCC/C=C\\CCCCCC(=O)OC", "note": "[cis-7-Hexadecenoic Acid methyl ester]", "values": [{"measurement": "percent Bodipy-positive cells", "setting": "[5]", "value": "9.93 ± 1.6", "unit": "%"}]}
{"smiles": "CCCCCC(O)CCC1C(O)CC(=O)C1CCCCCCC(=O)O", "note": "(centres undefined) [13,14-dihydro Prostaglandin E1]", "values": [{"measurement": "percent Bodipy-positive cells", "setting": "[5]", "value": "21.7 ± 4.5", "unit": "%"}]}
{"smiles": "CCCCCC(O)CCC1C(O)CC(=O)C1CCCCCCC(=O)O", "note": "[13,14-dihydro-15(R)-Prostaglandin E1]", "values": [{"measurement": "percent Bodipy-positive cells", "setting": "[5]", "value": "9.6 ± 1.4", "unit": "%"}]}
{"smiles": "COc1cc(/C=C(\\C#N)C(=O)Nc2nnc(C(F)(F)F)s2)ccc1OCc1ccc(C(F)(F)F)cc1C(F)(F)F", "values": [{"measurement": "percent Bodipy-positive cells", "setting": "[1]", "value": "16.9 ± 0.2", "unit": "%"}]}
{"smiles": "COc1ccccc1OCC(O)CN1CCN(CC(=O)Nc2c(C)cccc2C)CC1", "note": "(centres undefined) [Ranolazine]", "values": [{"measurement": "percent Bodipy-positive cells", "value": "9.49 ± 4", "unit": "%"}, {"measurement": "percent Bodipy-positive cells", "setting": "[4]", "value": "10.2 ± 8.7", "unit": "%"}, {"measurement": "percent Bodipy-positive cells", "setting": "[7]", "value": "13.8 ± 1.9", "unit": "%"}]}
{"smiles": "COc1ccccc1OCC(O)CN1CCN(CC(=O)Nc2c(C)cccc2C)CC1", "note": "(centres undefined) [Ranolazine 2HCl]", "values": [{"measurement": "percent Bodipy-positive cells", "setting": "[4]", "value": "10.2 ± 5", "unit": "%"}, {"measurement": "percent Bodipy-positive cells", "setting": "[7]", "value": "8 ± 2.4", "unit": "%"}, {"measurement": "percent Bodipy-positive cells", "setting": "[1]", "value": "21.6 ± 1.1", "unit": "%"}]}
{"smiles": "COc1ccccc1OCC(O)CN1CCN(CC(=O)Nc2c(C)cccc2C)CC1", "note": "(centres undefined) [Ranolazine dihydrochloride]", "values": [{"measurement": "percent Bodipy-positive cells", "setting": "[1]", "value": "8.19% and 14.5%"}]}
{"smiles": "O=[N+]([O-])c1cccc2cn[nH]c12", "values": [{"measurement": "percent Bodipy-positive cells", "setting": "[1]", "value": "5.88 ± 0.27", "unit": "%"}]}
